Consider 26 compounds from the supplement of paper PMC10735217.

The test system of this assay is HEK293A TEAD-LUC reporter. Nature of the assay: TEAD-luciferase reporter activity (YAP activation), robust Z score vs plate; higher = stronger YAP/TEAD activation. The conditions noted are these: 24 h. A general note: A reporter such as luciferase makes a cellular process visible.

Some of the results follow. Repeats in this data set agree poorly, so a single value says little.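 Human kidney-derived cells stably carry a construct in which eight TEAD-binding elements drive luciferase, measured by luminescence in a drug-repurposing library screen. A hit is any compound whose signal exceeds the plate mean by more than five robust Z scores.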

Regarding `O=C(CCc1c[nH]c2ccccc12)N1CCc2[nH]c3ccc(F)cc3c2C1`, the TEAD-luciferase reporter activity runs as follows: (compound concentration: 200 nM) inactive: -0.545; (compound concentration: 2 uM) inactive: -1.46; (compound concentration: 10 uM) inactive: -1.31.

As to `Cc1cc2[nH]c(=N)[nH]c(=N)n2n1` [dametralast], the TEAD-luciferase reporter activity (compound concentration: 200 nM) is inactive: -2.41, the TEAD-luciferase reporter activity (compound concentration: 2 uM) is inactive: -2.9 and the TEAD-luciferase reporter activity (compound concentration: 10 uM) was inactive: -2.39.

On to `CN(C)CCC(c1ccc(Cl)cc1)c1ccccn1` (configuration not stated) [Chlorpheniramine113-92-8], for which the TEAD-luciferase reporter activity (compound concentration: 200 nM) was inactive: -0.255 and the TEAD-luciferase reporter activity (compound concentration: 10 uM) was inactive: 1.45.

Regarding `CN(C)CCC(c1ccc(Cl)cc1)c1ccccn1` (configuration not stated) [chlorphenamine, Alza], the TEAD-luciferase reporter activity (compound concentration: 2 uM) was inactive: 0.603.

For `C[N+](C)(C)CCOP(=O)(O)OCC(O)CO` [choline-L-alfoscerate], the TEAD-luciferase reporter activity (compound concentration: 200 nM) is inactive: -0.482, the TEAD-luciferase reporter activity (compound concentration: 2 uM) is inactive: -1.51 and the TEAD-luciferase reporter activity (compound concentration: 10 uM) is inactive: 4.

As to `CCCN1C[C@H](C)[C@@H](O)[C@](C)(O)C(CC)OC(=O)[C@H](C)C(O[C@H]2C[C@@](C)(OC)[C@@H](O)[C@H](C)O2)[C@H](C)[C@@H](O[C@@H]2O[C@H](C)C[C@H](N(C)C)[C@H]2O)[C@](C)(O)C[C@H]1C` (some centres not stated) [Gamithromycin], the TEAD-luciferase reporter activity was inactive: -0.161 (compound concentration: 200 nM) and inactive: 0.415 (compound concentration: 10 uM).

With `O=C(NC1CC1)c1ccc(-n2cnc3ccccc3c2=O)cc1`, the TEAD-luciferase reporter activity is, setting by setting: (compound concentration: 200 nM) inactive: -1.88; (compound concentration: 2 uM) inactive: -1.19; (compound concentration: 10 uM) inactive: 3.52.

Regarding `CC1(C)OC2CC3C4CC(F)C5=CC(=O)C=CC5(C)C4(F)C(O)CC3(C)C2(C(=O)CO)O1` (configuration not stated) [fluocinolone acetonide], the TEAD-luciferase reporter activity is, setting by setting: (compound concentration: 200 nM) inactive: 0.17; (compound concentration: 2 uM) inactive: 0.822; (compound concentration: 10 uM) inactive: 2.32.

For the compound `Cc1c(F)cc2c(=O)c(C(=O)O)cn3c2c1CCC3C` (configuration not stated) [ibafloxacin], the TEAD-luciferase reporter activity is inactive: -1.06 (compound concentration: 200 nM), inactive: -0.573 (compound concentration: 2 uM) and inactive: -1.31 (compound concentration: 10 uM).

As to `N#Cc1cc(-c2nc(-c3ccncc3)n[nH]2)ccn1` [topiroxostat], the TEAD-luciferase reporter activity reads like this: (compound concentration: 200 nM) inactive: 2.17; (compound concentration: 2 uM) inactive: -0.558; (compound concentration: 10 uM) inactive: -1.56.

In the case of `Cc1ccc(Sc2ccccc2C2CCNCC2)cc1`, the TEAD-luciferase reporter activity (compound concentration: 200 nM) is inactive: 0.815, the TEAD-luciferase reporter activity (compound concentration: 2 uM) is inactive: -1.07 and the TEAD-luciferase reporter activity (compound concentration: 10 uM) is inactive: 2.7.

In the case of `CCCOc1ccc2nc(NC(=O)OC)sc2c1` [Tioxidazole], the TEAD-luciferase reporter activity by setting is: (compound concentration: 200 nM) inactive: 1.41; (compound concentration: 2 uM) inactive: -0.892; (compound concentration: 10 uM) inactive: 1.62.

In the case of `CCCc1nn(C)c2c(=O)nc(-c3cc(S(=O)(=O)N4CCN(CCO)CC4)ccc3OCC)[nH]c12`, the TEAD-luciferase reporter activity was inactive: 0.124 (compound concentration: 200 nM) and inactive: 3.37 (compound concentration: 10 uM).

In the case of `CCCc1nn(C)c2c(=O)nc(-c3cc(S(=O)(=O)N4CCN(CCO)CC4)ccc3OCC)[nH]c12` [Lodenafil], the TEAD-luciferase reporter activity (compound concentration: 2 uM) was inactive: -1.23.

With `CC[N+](C)(C)Cc1ccccc1Br` [Bretylium tosilate], the TEAD-luciferase reporter activity by setting is: (compound concentration: 200 nM) inactive: -1.89; (compound concentration: 2 uM) inactive: 0.71; (compound concentration: 10 uM) inactive: -0.369.

As for `C=C1C[C@@H](O)[C@H](/C=C/[C@@H](O)C(C)(C)CCCC)[C@H]1C/C=C\CCCC(=O)O` [Meteneprost], the TEAD-luciferase reporter activity is, setting by setting: (compound concentration: 200 nM) inactive: 0.275; (compound concentration: 2 uM) inactive: -1.89; (compound concentration: 10 uM) inactive: -1.15.

On to `O=C1CC2CCCC(C1)N2C(=O)c1ccc(F)cc1`, for which the TEAD-luciferase reporter activity (compound concentration: 200 nM) is inactive: 0.961 and the TEAD-luciferase reporter activity (compound concentration: 10 uM) is active: 5.06.

Regarding `Cc1cc(NC(=O)NCCN2CCC(O)(Cc3ccccc3)CC2)c2ccccc2n1` [Palosuran], the TEAD-luciferase reporter activity is inactive: 2.31 (compound concentration: 200 nM), inactive: -0.248 (compound concentration: 2 uM) and inactive: 2.5 (compound concentration: 10 uM).

Turning to `O=C(CCCCCCNC(=O)c1cnc(N(c2ccccc2)c2ccccc2Cl)nc1)NO` [Citarinostat], the TEAD-luciferase reporter activity by setting is: (compound concentration: 200 nM) inactive: -0.41; (compound concentration: 2 uM) active: 9.05; (compound concentration: 10 uM) inactive: 2.98.

Consider `O=C1c2c(O)ccc(O)c2C(=O)c2c(NCCNCCO)ccc(NCCNCCO)c21`, for which the TEAD-luciferase reporter activity (compound concentration: 200 nM) was inactive: -0.241 and the TEAD-luciferase reporter activity (compound concentration: 10 uM) is inactive: -0.0646.

As to `O=C1c2c(O)ccc(O)c2C(=O)c2c(NCCNCCO)ccc(NCCNCCO)c21` [mitoxantrone], under “compound concentration: 2 uM”, the TEAD-luciferase reporter activity was active: 6.77.

With `CC(C)[C@H](N)C(=O)N1CCC[C@H]1C(=O)N1CCC[C@H]1C(=O)O`, the TEAD-luciferase reporter activity is, setting by setting: (compound concentration: 200 nM) inactive: -1.52; (compound concentration: 2 uM) inactive: -0.345; (compound concentration: 10 uM) inactive: 4.45.

Take `CC(=O)N1CCN(CCN2[C@@H]3CC[C@H]2C[C@@H](NC(=O)c2nn(C(C)C)c4ccccc24)C3)CC1`: the TEAD-luciferase reporter activity by setting is: (compound concentration: 200 nM) inactive: -2.13; (compound concentration: 2 uM) inactive: -0.581; (compound concentration: 10 uM) inactive: -0.461.

As to `O=C(Nc1ccncc1)NN1CC=CCC1`, the TEAD-luciferase reporter activity by setting is: (compound concentration: 200 nM) inactive: -0.226; (compound concentration: 2 uM) inactive: -1.14; (compound concentration: 10 uM) inactive: -0.521.

As to `Nc1cccc(CN2C(=O)N(Cc3ccc4[nH]ncc4c3)[C@H](Cc3ccccc3)[C@H](O)[C@@H](O)[C@H]2Cc2ccccc2)c1`, the TEAD-luciferase reporter activity (compound concentration: 200 nM) was inactive: -0.0244, the TEAD-luciferase reporter activity (compound concentration: 2 uM) is inactive: 1.34 and the TEAD-luciferase reporter activity (compound concentration: 10 uM) is inactive: -0.457.

`O=c1c(CO)coc2cc(OCCCN3CCC(c4noc5cc(F)ccc45)CC3)ccc12`: the TEAD-luciferase reporter activity is, setting by setting: (compound concentration: 200 nM) inactive: -1.34; (compound concentration: 2 uM) inactive: 0.232; (compound concentration: 10 uM) inactive: 0.348.
